Measurements: PubChem BioAssay AID912 (National Center for Advancing Translational Sciences (NCATS), 2007)
In all, about 70,000 compounds went through this assay and about 470 (0.67%) were called active. Only results without a clear call are listed here; the source files them as inconclusive. Calls follow the shape of the full dose curve.

Assay: qHTS Assay for Anthrax Lethal Toxin Internalization; also: nearly all actives have a fitted effect of over 50% in size
Details: Cells, FRET ratio (460/530)
Potency is read from the fitted curve at half-maximal effect.

| Structure (SMILES) | Potency |
| --- | --- |
| O=C(OC1CN2CCC1CC2)C1c2ccccc2Oc2ccccc21 (configuration not stated) | inconclusive: 12.6 µM |
| CCC(CO)(C(=O)OC1CN2CCC1CC2)c1ccccc1 (configuration not stated) | inconclusive: 25.1 µM |
